{"source": "patent US20080317752A1", "about": "“Inhibition of Tumorigenesis by Inhibition of a6b4 Integrin” (Sloan-Kettering Institute for Cancer Research, priority 2005, published 2008)", "origin": "cited, not measured here", "test_system": "SFKs", "conditions": "cited from earlier work", "note": "At least one compound was matched to its structure with a doubt left.", "data": [{"smiles": "Cc1nc(Nc2ncc(C(=O)Nc3c(C)cccc3Cl)s2)cc(N2CCN(CCO)CC2)n1", "note": "[Dasatinib]", "values": [{"measurement": "concentration inhibiting SFKs", "value": "nanomolar concentrations"}]}]}
